{"sequences": {"note": "Chains of the proteins cited; added tags and fusions are not shown.", "UniProt O00425, whole entry": "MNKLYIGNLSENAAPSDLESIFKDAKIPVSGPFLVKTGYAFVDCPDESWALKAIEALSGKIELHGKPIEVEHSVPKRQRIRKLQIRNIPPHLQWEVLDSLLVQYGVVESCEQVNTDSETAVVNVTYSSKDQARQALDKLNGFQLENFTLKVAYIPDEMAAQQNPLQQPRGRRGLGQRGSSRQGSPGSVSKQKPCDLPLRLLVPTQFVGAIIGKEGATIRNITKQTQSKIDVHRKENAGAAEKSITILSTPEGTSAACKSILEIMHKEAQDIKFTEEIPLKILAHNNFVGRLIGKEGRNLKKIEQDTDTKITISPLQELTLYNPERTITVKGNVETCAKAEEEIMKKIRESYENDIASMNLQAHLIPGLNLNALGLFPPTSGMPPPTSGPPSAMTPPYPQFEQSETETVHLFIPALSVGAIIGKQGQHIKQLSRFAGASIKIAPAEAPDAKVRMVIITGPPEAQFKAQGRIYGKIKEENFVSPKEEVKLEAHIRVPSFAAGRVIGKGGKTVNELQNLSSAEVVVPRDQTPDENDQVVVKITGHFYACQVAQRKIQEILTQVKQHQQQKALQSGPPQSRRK"}, "source": "paper PMC13431160", "molecular_target": "IGF2BP3 WT (UniProt O00425)", "experiment": "fluorescence anisotropy", "details": "25 mM HEPES pH 7.2, 150 mM NaCl, 25 nM RNA, 3.9 nM-4 uM protein, 30 min on ice, read at 20 C, recombinant protein, residues 1-579, protein details: N-terminal GST removed by 3C cleavage (pGEX-6P-2), label: 5' fluorescein", "note": "Weaker means in comparison with the reference protein, sequence or condition of that experiment. The exact form of at least one protein or probe is not confirmed."}
{"sequence": "TAACAUUUAA [CAUUU motif RNA]", "values": [{"measurement": "Kd", "setting": "5' fluorescein-dT (FluorT) precedes the tagged RNA S7", "value": 400, "unit": "nM"}]}
{"sequence": "TAAUCCAGAA [UCCAG motif RNA]", "values": [{"measurement": "Kd", "setting": "5' fluorescein-dT (FluorT) precedes the tagged RNA S6", "value": 400, "unit": "nM"}]}
{"sequence": "UAAAAAAAAA [poly(A) negative control RNA]", "values": [{"measurement": "binding result", "setting": "5' fluorescein-dT (FluorT) precedes the tagged RNA S9", "value": "binds more weakly"}]}
